At least one structure is not confirmed: it was looked up by name or label, or the drawing left a doubt.
What was measured:
[1] = British Pat. No. 757,650; cited from earlier work
[2] = nasal decongestants; cited from earlier work
α2 -adrenergic [3] = test: α2 -adrenergic antagonist activity (general statement)
Experimental: On the other hand, the sympathomimetic activity characteristic of the latter group of compounds is not present in the compounds of the present invention.
The α2 -adrenergic antagonist activity is measured by three screening methods, described as follows: […]

α2 -adrenergic [4] = details: prior-art compounds; cited from earlier work

SMILES	pressor activity (in words) [1]	sympathomimetic activity (in words, background section) [2]	α2 -adrenergic antagonist activity (in words) (α2 -adrenergic [3])	α2 -adrenergic antagonist activity (in words, background section) (α2 -adrenergic [4])
c1ccc2c(c1)CCC2C1=NCCN1 (stereo not shown) [2-(1-indanyl)imidazoline]	having pressor activity			
c1ccc2c(CC3=NCCN3)cccc2c1 [Naphazoline, 2-(1-naphthylmethyl)imidazoline]		well-known sympathomimetic agents	essentially devoid of such activity	do not possess α2 -adrenergic antagonist activity
